Where “and” joins values, the source holds several entries; their conditions need not be identical. Equal values may be shown once. In all, about 59,000 compounds went through this assay and about 35 (0.06%) were called active. This list was built around the results that the source calls inconclusive (neither active nor inactive); the mix of calls is not that of the screen. Cut-off read from the data, not from the text of the source: active = max dye-equivalent concentration above about 10 nM; inconclusive = between about 1.1 nM and that limit; inactive = weaker than that.
Test: qHTS Assay for Spectroscopic Profiling in Texas Red Spectral Region
Conditions: Compound fluorescence, Texas Red channel, 547/618 nm; hits give high values
Summary of the method: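 Spectral interference profiling: each compound concentration's relative fluorescence, read with a 547 nm excitation and 618 nm emission filter pair, was normalized to a per-plate Texas Red standard curve.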

Row | Compound | max dye-equivalent concentration
1 | CN(C)CCNC(=O)c1c(O)c2c([nH]c1=O)CCCC2 | inconclusive: 1.2e-09 M
2 | COC(=O)c1cc(Br)c(=O)n(-c2ccccn2)c1 | inconclusive: 2.2e-09 M
3 | COc1[nH]c(/N=C/c2ccccc2)c(C#N)c1C#N | inconclusive: 2.8e-09 M
4 | Cc1cc(C)n2nc(C(=O)Nc3ccccc3N3CCOCC3)nc2n1 | inconclusive: 1.2e-09 M
5 | CC(C)C(=O)Nc1ccc(N2CCN(C(=O)c3cccs3)CC2)cc1 | inconclusive: 1.3e-09 M
6 | N#CC1=C(N)N2C(=C(C#N)C13CCN(Cc1ccccc1)CC3)Nc1ccccc12 | inconclusive: 1.2e-09 M
7 | COc1ccccc1-c1c(NC(=O)c2ccco2)n(-c2ccccc2)nc(C)c1=O | inconclusive: 2e-09 M
8 | N#CCCn1c2ccccc2c2nc3ccccc3nc21 | inconclusive: 1.7e-09 M
9 | CCOc1ccccc1Cn1c(=O)oc2ccc(C)cc21 | inconclusive: 1.1e-09 M
10 | CC1CN(c2nc3ccccc3nc2C(C#N)C(=O)NC2CCCCC2)CC(C)O1 (configuration not stated) | inactive
11 | Cc1cc(C)n(-c2ccc(OCC(=O)O)nn2)n1 | inconclusive: 1.4e-09 M
12 | COc1cccc(NC(=O)Cc2cccs2)c1 | inconclusive: 1.3e-09 M
13 | O=C(CSc1nnc(-c2ccco2)n1Cc1ccccc1)NC(=O)NCc1ccccc1 | inconclusive: 1.2e-09 M
14 | CNc1ccccc1C(C)(C)c1cc(-c2ccco2)n[nH]1 | inconclusive: 2.5e-09 M
15 | C=CCn1c(=S)[nH]c2nc3c(cc2c1=O)CCCC3 | inactive
16 | O=C(O)C1CC(c2ccccc2F)=NO1 (configuration not stated) | inconclusive: 1.1e-09 M
17 | CCCCN(C)CCCNC(=O)c1ccc2c(c1)NC(=O)C(N1CCOCC1)S2 (configuration not stated) | inconclusive: 1.1e-09 M
18 | O=C(O)CCSCc1ccc(I)cc1 | inactive
19 | COc1cc(NC(=O)Cc2ccc(Cl)cc2)ccc1NC(=O)c1ccco1 | inconclusive: 1.2e-09 M

Row | Compound | max dye-equivalent concentration
20 | CCS(=O)(=O)N1CCN(Cc2ccccc2OC)CC1 | inconclusive: 1.1e-09 M
21 | Cc1ccc2[nH]c(=O)c(CN(CCc3ccccc3)C(=O)N3CCOCC3)cc2c1 | inconclusive: 2e-09 M
22 | O=C(OCc1nnc(-c2ccccc2)o1)c1ccc2c(c1)C(=O)N(CCc1ccccc1)C2=O | inconclusive: 1.9e-09 M
23 | O=S(=O)(Nc1ccc2c(c1)OCCO2)c1cccc2cccnc12 | inconclusive: 1.4e-09 M
24 | O=C(CSc1nnc(-c2ccco2)n1-c1ccccc1)N1CCOCC1 | inconclusive: 1.3e-09 M
25 | CCOC(=O)N1CCN(S(=O)(=O)N(C)C)CC1 | inconclusive: 1.3e-09 M
26 | CC(C)CC(=O)Nc1ccc2oc(-c3ccncc3)nc2c1 | inconclusive: 1.1e-09 M
27 | Cc1nnc(N(C)C(=O)c2cccnc2)s1 | inconclusive: 2.4e-09 M
28 | O=C(CSc1ncccc1C(=O)O)NCCC1=CCCCC1 | inconclusive: 1.4e-09 M
29 | Cc1ccc(S(=O)(=O)Cc2cccc(C(=O)N3CCOCC3)c2)cc1 | inconclusive: 2.2e-09 M
30 | CCOCCCNS(=O)(=O)Cc1ccccc1 | inconclusive: 1.1e-09 M
31 | CN1CCN(c2ncc3nc(CCc4ccccc4)c(=O)n(CCc4ccccc4)c3n2)CC1 | inconclusive: 1.2e-09 M
32 | COc1ccc(-c2c3c(=O)n(C)c(=O)n(C)c3cn2NC(C)=O)cc1 | inactive
33 | Nc1nonc1-c1nc2ccccc2n1CCC(=O)O | inactive
34 | CSc1nc2c(c(=O)[nH]1)C(c1ccncc1)C(C(=O)OC(C)C)=C(C)N2 (configuration not stated) | inconclusive: 1.2e-09 M
35 | COc1cccc(Oc2nc3ncn(Cc4ccccc4)c3c(=O)n2C)c1 | inconclusive: 1.1e-09 M
36 | CCCOC(=O)c1cc(=O)[nH]c2ccccc12 | inconclusive: 1.1e-09 M and inconclusive: 1.7e-09 M
37 | Cc1[nH]c2c(C)ccc(C)c2c1CC(=O)O | inactive
38 | COc1cc(NC(=O)Nc2cccc(C(C)=O)c2)cc(OC)c1OC | inconclusive: 1.2e-09 M

Individual results from the results shown.
max dye-equivalent concentration, `CCOCCCNS(=O)(=O)Cc1ccccc1` is entered as inconclusive: 1.1e-09 M
max dye-equivalent concentration, `CC(C)CC(=O)Nc1ccc2oc(-c3ccncc3)nc2c1` is entered as inconclusive: 1.1e-09 M

Carrying on.

Row | Compound | max dye-equivalent concentration
39 | Nc1ccccc1S(N)(=O)=O | inconclusive: 1.5e-09 M
40 | O=C(C1COc2ccccc2O1)N1CCN(c2ccccc2)CC1 (configuration not stated) | inconclusive: 1.3e-09 M
41 | CNC(=O)Oc1ccc2c(c1)[C@@]1(C)CCN(C)[C@@H]1N2C | inconclusive: 1.5e-09 M and inconclusive: 1.2e-09 M
42 | COC(=O)c1ccc2c(c1)N(Cc1nc(-c3ccc(Cl)cc3)oc1C)C(=O)C1CCCN21 (configuration not stated) | inconclusive: 1.2e-09 M
43 | CC(C)NC(=O)CSc1nc2ccccc2n1-c1ccccc1 | inconclusive: 1.3e-09 M
44 | O=C(O)CCc1ccc(-c2ccccc2)[nH]1 | inactive
45 | COC(=O)c1cccc(NC(=O)CSc2nc(=O)cc(N)n2-c2ccccc2)c1 | inconclusive: 1.1e-09 M
46 | COc1ccc(-c2ccc(-c3nnc(-c4ccncc4)o3)cc2)cc1 | inconclusive: 1.1e-09 M
47 | CC[C@@]12CCCN3CCc4c(n(c5ccccc45)C(=O)C1)[C@H]32 | inactive
48 | CCOc1ccccc1-n1c(SCC(N)=O)nnc1-c1cccnc1 | inactive
49 | O=C(CC(Nc1ccc(F)cc1)C(=O)O)c1ccccc1 (configuration not stated) | inconclusive: 1.8e-09 M
50 | CCS(=O)(=O)c1nc2ccccc2n1CC(=O)N1CCOCC1 | inconclusive: 1.3e-09 M
51 | C/C(N)=C(/C#N)C(=O)CSc1nc(C2CCCCC2)n(-c2ccccc2)n1 | inconclusive: 1.7e-09 M
52 | COCCn1c(C2CCCCC2)nc2sc3ccccc3c(=O)c2c1=O | inconclusive: 1.4e-09 M
53 | COc1ccc(Cn2nnnc2C(c2cccnc2)N2CCN(c3ccc(O)cc3)CC2)cc1 (configuration not stated) | inconclusive: 1.2e-09 M
54 | COc1ccc(CC2C(=O)OC(C)(C)OC2=O)cc1 | inconclusive: 1.8e-09 M
55 | O=C(Cn1cnc2ccccc2c1=O)NCC(=O)N1CCN(Cc2ccc3c(c2)OCO3)CC1 | inconclusive: 1.6e-09 M
56 | CS/C(=N\S(=O)(=O)c1cccs1)NC(=O)CSc1nc2ccccc2s1 | inconclusive: 2.2e-09 M
57 | COc1ccc(C(=O)CSc2nnc(-c3ccco3)n2C)cc1 | inconclusive: 1.1e-09 M

— PubChem BioAssay AID587 (National Center for Advancing Translational Sciences (NCATS), 2007)
